Experimental data taken from patent US20080166293A1.
No constants are given. Whether binding was seen depends on the method and setting. Some entries that bind do so weakly or less than the wild type.

Target: human transferrin receptor (hTfR) (human) (UniProt P02786)
Test: phage binding to CEF+hTfR versus CEF cells at 4 C, titer of eluted phage

Row | Binder | binding
1 | HAIYPRH (peptide, not shown: large carriers) [HAIYPRH (Seq. ID No. 1) phage] | binds
2 | THRPPMWSPVWP (peptide, not shown: large carriers) [… (Seq. ID No. 2) phage] | binds
